In this experiment the test system is P388 leukemia ip, CD2F1 mice, survival T/C. In words: NCI In Vivo Anticancer Drug Screen. Data for tumor model P388 Leukemia (intraperitoneal) in CD2F1 (CDF1) mice. Conditions: T/C endpoint: median survival time, higher T/C = longer survival.
Where [1] appears, read: dose: 25.0 mg/kg/injection, schedule: Q01DX005 (ip), vehicle: Klucel (hydroxypropylcellulose) (HPC).
[2] abbreviates: dose: 50.0 mg/kg/injection, schedule: Q01DX005 (ip), vehicle: Klucel (hydroxypropylcellulose) (HPC).
Where [3] appears, read: dose: 100.0 mg/kg/injection, schedule: Q01DX005 (ip), vehicle: Klucel (hydroxypropylcellulose) (HPC).
Setting [4] is: dose: 200.0 mg/kg/injection, schedule: Q01DX005 (ip), vehicle: Klucel (hydroxypropylcellulose) (HPC).
[5] abbreviates: dose: 200.0 mg/kg/injection, schedule: Q01DX009 (ip), vehicle: saline with Tween-80.
Where [6] appears, read: dose: 200.0 mg/kg/injection, schedule: Q01DX005 (ip), vehicle: saline with Tween-80.
The mark [7] stands for this setting: dose: 60.0 mg/kg/injection, schedule: Q01DX005 (ip), vehicle: saline with Tween-80.
Setting [8] is: dose: 120.0 mg/kg/injection, schedule: Q01DX005 (ip), vehicle: saline with Tween-80.
Setting [9] is: dose: 240.0 mg/kg/injection, schedule: Q01DX005 (ip), vehicle: saline with Tween-80.
The mark [10] stands for this setting: dose: 100.0 mg/kg/injection, schedule: Q01DX005 (ip), vehicle: saline with Tween-80.
The mark [11] stands for this setting: dose: 100.0 mg/kg/injection, schedule: Q01DX009 (ip), vehicle: saline.
Where [12] appears, read: dose: 200.0 mg/kg/injection, schedule: Q01DX009 (ip), vehicle: saline.

This is an account of results in PubChem BioAssay AID330 (DTP/NCI, 2004).

The list is a part of this screen's results and no random one: it gathers tests that were run many times, whatever their T/C, doses with no T/C, and many T/C values between a quarter and a half above the control. Other doses and runs of a compound stand elsewhere. T/C gives the treated animals as a percentage of the vehicle group. Some doses have a count of surviving animals in place of a T/C: the source files T/C as zero there, which appears to mark a toxic dose or a test without result, not a measured value. Some survivor counts are full or nearly so, which does not show that the dose was tolerated: the source hardly ever lists a survival T/C far under the control, and the zero likely stands for such cases as well. Survivors were counted at the toxicity check, usually on the fifth day, unless a day is given; later deaths do not show. Schedules are NCI's codes, read here as Q, the interval in days (D) or hours (H), X, the number of doses. Some doses were run more than once; the values are given in rising order. For survival time, the PubChem record calls one and a half times the control and up active, and a quarter to a half above the control has no call in these data; cut-offs in other NCI protocols can differ.

Regarding `CC(=O)OCC12C(=O)CC(C)C3(CC(c4ccoc4)OC3=O)C1(C)CCCC21CO1` (stereo not given) (tested in a mixture with another compound), for the setting “dose: 192.0 mg/kg/injection, schedule: Q01DX005 (ip), vehicle: Klucel (hydroxypropylcellulose) (HPC)”, the survivor count is listed as 5 of 5.

`Cc1c(-c2ccc(C3CCCCC3)cc2)nc2ccc(F)cc2c1C(=O)O`: the T/C under setting [1] is 132 % of control, the T/C under setting [2] is 136 % of control, the T/C under setting [3] was 146 % of control and the T/C under setting [4] is 146 % of control.

On to `O=C(c1ncccc1O)N1CCCCC1`, for which, for the setting “dose: 25.0 mg/kg/injection, schedule: Q01DX009 (ip), vehicle: distilled water + Tween-80”, the survivor count is on record as 6 of 6.

On to `NOCc1ccccc1`, for which, under “dose: 400.0 mg/kg/injection, schedule: Q01DX009 (ip), vehicle: Klucel (hydroxypropylcellulose) (HPC)”, the survivor count was 0 of 6.

As to `CC(C)N(Cc1ccccc1)CC(O)c1ccc(Cl)cc1` (stereo not given), the survivor count under setting [5] is given as 5 of 6.

Consider `CCCCNC(=O)c1cc(NC(=O)c2ccc(C(=O)Nc3cc(C(=O)NCCCC)cc(C4N=CCN4)c3)cc2)cc(C2=NCCN2)c1` (stereo not given), for which the survivor count under setting [6] was 4 of 6.

As for `O=[N+]([O-])c1cccc2c1c([N+](=O)[O-])cc[n+]2[O-]`, the survivor count (dose: 50.0 mg/kg/injection, schedule: Q04DX002 (ip), vehicle: saline with Tween-80) was 5 of 6; the survivor count (dose: 100.0 mg/kg/injection, schedule: Q04DX002 (ip), vehicle: saline with Tween-80) is listed as 0 of 6; the survivor count (dose: 200.0 mg/kg/injection, schedule: Q04DX002 (ip), vehicle: saline with Tween-80) is 0 of 6.

As to `CC1=NN(c2ccccc2)C(=O)/C1=C(\[O-])c1ccccc1.CC1=NN(c2ccccc2)C(=O)/C1=C(\[O-])c1ccccc1.CC1=NN(c2ccccc2)C(=O)/C1=C(\[O-])c1ccccc1.[Fe+3]`, the T/C under setting [7] is on record as 93, 97, 102 % of control. For the same compound, the survivor count is 6 of 6 under setting [7], 6 of 6 under setting [8] and 6 of 6 under setting [9].

`O=C1C=CC(=O)c2c1c(O)c1ccccc1c2Cl`: the survivor count by setting is: (dose: 50.0 mg/kg/injection, schedule: Q01DX005 (ip), vehicle: saline with Tween-80) 6 of 6; under setting [10], 6 of 6; under setting [6], 6 of 6.

With `CSC(=N)c1cccc(OCCOc2ccccc2)c1`, under “dose: 60.0 mg/kg/injection, schedule: Q01DX005 (ip), vehicle: Klucel (hydroxypropylcellulose) (HPC)”, the survivor count is 5 of 6.

On to `COc1ccc2c(C)cc(NNC(N)=S)nc2c1`, for which the survivor count under setting [4] was 0 of 6 and 5 of 6.

With `O=C(c1ccc(Cl)cc1)n1c(Cl)c(/C=N\Nc2ccc([N+](=O)[O-])cc2[N+](=O)[O-])c2ccccc21`, the survivor count reads like this: (dose: 50.0 mg/kg/injection, schedule: Q01DX001 (ip), vehicle: Klucel (hydroxypropylcellulose) (HPC)) 6 of 6; (dose: 100.0 mg/kg/injection, schedule: Q01DX001 (ip), vehicle: Klucel (hydroxypropylcellulose) (HPC)) 6 of 6; (dose: 200.0 mg/kg/injection, schedule: Q01DX001 (ip), vehicle: Klucel (hydroxypropylcellulose) (HPC)) 6 of 6.

As for `CCN(CC)CCOC(=O)C(OCCOc1ccccc1)(c1ccccc1)c1ccccc1`, under setting [4], the survivor count is recorded as 0 of 6.

With `CCCCN(CCCC)C(=N)c1ccccc1Cl`, the survivor count is 0 of 5 under setting [1], 0 of 5 under setting [2], 0 of 5 under setting [3] and 0 of 5 under setting [4].

Turning to `COc1cc(C2CC(C)(OC)Oc3cc4c(cc32)OCO4)cc(OC)c1O` (stereo not given), the survivor count is on record as 6 of 6 under setting [7], 6 of 6 under setting [8] and 4 of 6 under setting [9].

For the compound `c1ccc2c(c1)CCc1ccccc1C2NC1=NCCSC1`, the survivor count under setting [5] is given as 0 of 6.

`CCCCCC(C[N+](C)(C)C)C(=O)/C=C/c1ccc(Cl)c(Cl)c1` (stereo not given): the survivor count is reported as 2 of 6 (dose: 25.0 mg/kg/injection, schedule: Q01DX009 (ip), vehicle: saline) and 3 of 6 (dose: 50.0 mg/kg/injection, schedule: Q01DX009 (ip), vehicle: saline).

On to `N#Cc1ccc[n+](CC(=O)c2ccc3ccccc3c2)c1`, for which the survivor count by setting is: under setting [2], 2 of 5; under setting [3], 0 of 5; under setting [4], 4 of 5.

As for `C[n+]1c(/C=C\c2ccc(Cl)cc2)ccc2ccccc21`, the survivor count (dose: 6.25 mg/kg/injection, schedule: Q01DX009 (ip), vehicle: saline with Tween-80) is 3 of 6.

On to `CCC1CCCCN1Cc1ccccc1` (stereo not given), for which, under “dose: 240.0 mg/kg/injection, schedule: Q01DX005 (ip), vehicle: Klucel (hydroxypropylcellulose) (HPC)”, the survivor count was 3 of 6.

In the case of `C/C(COc1ccc([N+](=O)[O-])cc1)=N/NS(=O)(=O)c1cc(Cl)c(Cl)cc1Cl`, the survivor count under setting [11] is recorded as 6 of 6 and the survivor count under setting [12] is 6 of 6.

`O=C(CN1CCN(c2ccccc2)CC1)n1nnc2ccccc21`: the survivor count under setting [9] is reported as 6 of 6.

Turning to `O=C(c1ccccc1)c1cccc[n+]1Cc1ccccc1`, the survivor count reads like this: under setting [11], 6 of 6; under setting [12], 0 of 6.

With `O=[N+]([O-])c1cccn2cnnc12`, under setting [12], the survivor count is given as 2 of 6.

With `OO.OO.[Cr+3].[NH-]CC[N-]CC[NH-]`, the survivor count under setting [5] is on record as 3 of 6.

On to `CCOC(=O)/C=C(\Cl)C(=O)OCC`, for which the survivor count (dose: 12.5 mg/kg/injection, schedule: Q01DX009 (ip), vehicle: saline with Tween-80) is 6 of 6; the survivor count (dose: 50.0 mg/kg/injection, schedule: Q01DX009 (ip), vehicle: saline with Tween-80) is 0 of 6; the survivor count (dose: 100.0 mg/kg/injection, schedule: Q01DX009 (ip), vehicle: saline with Tween-80) is on record as 0 of 6; the survivor count under setting [5] is recorded as 0 of 6.

For `CCc1cccc(CC)c1NC(=O)c1ccc(C)cc1`, the survivor count under setting [9] is 6 of 6.

With `C1COCCOCCOCCO1.[Cl][Sn]([Cl])([Cl])[Cl]`, the survivor count (dose: 400.0 mg/kg/injection, schedule: Q01DX001 (ip), vehicle: Klucel (hydroxypropylcellulose) (HPC)) is given as 0 of 6.

Regarding `CCN(CC)c1ccc(C(=C2C=CC(=[N+](CC)CC)C=C2)c2ccc(N(CC)CC)cc2)cc1`, the T/C (dose: 25.0 mg/kg/injection, schedule: Q01DX005 (ip), vehicle: saline with Tween-80) is 125 % of control and the T/C under setting [10] is 129 % of control. Further, the survivor count runs as follows: under setting [10], 5 of 5; under setting [6], 0 of 5.

As for `CC(CCc1ccc2c(c1)c(=N)c1ccc(N)cc1n2O)CC(C)(C)C` (stereo not given), the survivor count is, setting by setting: (dose: 25.0 mg/kg/injection, schedule: Q04DX002 (ip), vehicle: distilled water + Tween-80) 4 of 5; (dose: 50.0 mg/kg/injection, schedule: Q04DX002 (ip), vehicle: distilled water + Tween-80) 1 of 5; (dose: 100.0 mg/kg/injection, schedule: Q04DX002 (ip), vehicle: distilled water + Tween-80) 0 of 5; (dose: 200.0 mg/kg/injection, schedule: Q04DX002 (ip), vehicle: distilled water + Tween-80) 0 of 5; (dose: 400.0 mg/kg/injection, schedule: Q04DX002 (ip), vehicle: distilled water + Tween-80) 0 of 5.

On to `Nc1nc(N)nc(NCCSSCCNc2nc(N)nc(N)n2)n1`, for which the survivor count is 6 of 6 (dose: 100.0 mg/kg/injection, schedule: Q01DX009 (ip), vehicle: other) and 6 of 6 (dose: 200.0 mg/kg/injection, schedule: Q01DX009 (ip), vehicle: other).

Take `COc1cccc(OC)c1SSCCN`: the survivor count (dose: 400.0 mg/kg/injection, schedule: Q04DX002 (ip), vehicle: suspension in saline) was 5 of 5.
